Laboratory results: PubChem BioAssay AID743454 (Peter MacCallum Cancer Centre, 2014)
Shown is an unselected part of about 18,000 reagents tested. 450 of all reagents (2.5%) were called active. 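Single biological run; no consistent viability z cut-off exists, so the class columns, not z-scores, define the calls.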

Assay: 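Genes whose loss kills vorinostat-resistant colon cancer cells under vorinostat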 (primary screen)
Cells: human HCT116-VR colon cancer cells, selected for vorinostat resistance
Knock-down reagent: siRNA pool against human genes, 40 nM siRNA pool
Duration: vorinostat for 24 h, read-out about 72 h after transfection
Treatment: vorinostat at 2.5 µM final
Measured: 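Cell viability by CellTiter-Fluor and caspase 3/7 activity by luminescence, each scaled to mock wells per plate, duplicates averaged, then robust z-scored over all plates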
Direction: viability robust z-score: higher = more viable cells than screen typical; caspase robust z-score: higher = more caspase 3/7 activity than screen typical
Rule for the call: 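a knock-down is a hit when classed RV1 or RV2 for lowered viability, or CA1 or CA2 for caspase activation; those lethal without drug were dropped; hits were retested singly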

| Gene | viability hit class | caspase hit class | viability robust z-score | caspase robust z-score | outcome |
| --- | --- | --- | --- | --- | --- |
| FSCN2 (fascin actin-bundling protein 2, retinal) | no change | no change | 0.26 | -0.56 | inactive |
| DUSP15 (dual specificity phosphatase 15) | no change | no change | 0.5 | -1.06 | inactive |
| TMX3 (thioredoxin related transmembrane protein 3) | no change | no change | 0.3 | 0.62 | inactive |
| ZNF304 (zinc finger protein 304) | no change | no change | 0.9 | 0.06 | inactive |
| OGT (O-linked N-acetylglucosamine (GlcNAc) transferase) | no change | no change | 0.67 | 0.46 | inactive |
| KRTAP2-4 (keratin associated protein 2-4) | no change | no change | -1.18 | 0.34 | inactive |
| LLGL2 (LLGL scribble cell polarity complex component 2) | no change | no change | 0.92 | 2.37 | inactive |
| HNF4G (hepatocyte nuclear factor 4 gamma) | no change | no change | 1.22 | -0.24 | inactive |
| GHR (growth hormone receptor) | no change | no change | -0.69 | -1.54 | inactive |
| BTN2A3P (butyrophilin subfamily 2 member A3, pseudogene) | no change | no change | -0.06 | 0.18 | inactive |
| DOCK5 (dedicator of cytokinesis 5) | no change | no change | -1.02 | -0.02 | inactive |
| EFCAB11 (EF-hand calcium binding domain 11) | no change | no change | -0.57 | 1.11 | inactive |
| RPGRIP1L (RPGRIP1 like) | no change | no change | 0.16 | 0.18 | inactive |
| AGBL1 (AGBL carboxypeptidase 1) | no change | no change | -0.52 | 0.31 | inactive |
| CEACAM6 (CEA cell adhesion molecule 6) | no change | no change | -1.5 | 0.12 | inactive |
| EMC1 (ER membrane protein complex subunit 1) | no change | no change | 1.77 | 2.68 | inactive |
| MRPL45 (mitochondrial ribosomal protein L45) | no change | no change | -0.02 | 0 | inactive |
| HLA-K (major histocompatibility complex, class I, K (pseudogene)) | no change | no change | -2.34 | 3.08 | inactive |
| TUBA3D (tubulin alpha 3d) | no change | no change | 0.02 | 0.1 | inactive |
| ZNF695 (zinc finger protein 695) | no change | no change | 0.92 | -0.7 | inactive |

Next part, starting with the last 7 of the part before.
| Gene | viability hit class | caspase hit class | viability robust z-score | caspase robust z-score | outcome |
| --- | --- | --- | --- | --- | --- |
| AGBL1 (AGBL carboxypeptidase 1) | no change | no change | -0.52 | 0.31 | inactive |
| CEACAM6 (CEA cell adhesion molecule 6) | no change | no change | -1.5 | 0.12 | inactive |
| EMC1 (ER membrane protein complex subunit 1) | no change | no change | 1.77 | 2.68 | inactive |
| MRPL45 (mitochondrial ribosomal protein L45) | no change | no change | -0.02 | 0 | inactive |
| HLA-K (major histocompatibility complex, class I, K (pseudogene)) | no change | no change | -2.34 | 3.08 | inactive |
| TUBA3D (tubulin alpha 3d) | no change | no change | 0.02 | 0.1 | inactive |
| ZNF695 (zinc finger protein 695) | no change | no change | 0.92 | -0.7 | inactive |
| SRP68 (signal recognition particle 68) | no change | no change | 0.18 | -0.22 | inactive |
| OR8S1 (olfactory receptor family 8 subfamily S member 1) | no change | no change | 0.56 | -0.12 | inactive |
| AKR1A1 (aldo-keto reductase family 1 member A1) | no change | no change | -1.23 | 2.68 | inactive |
| CLIC2 (CLIC family member 2) | no change | no change | 0.41 | 0.13 | inactive |
| DLAT (dihydrolipoamide S-acetyltransferase) | no change | no change | 1.02 | 0.2 | inactive |
| LCA5 (lebercilin LCA5) | no change | no change | -1 | 1.21 | inactive |
| RET (ret proto-oncogene) | no change | no change | 1.14 | -0.86 | inactive |
| ZNF410 (zinc finger protein 410) | no change | no change | 0.19 | -0.6 | inactive |
| ZNF485 (zinc finger protein 485) | no change | no change | 0.38 | -0.34 | inactive |
| ATP11A (ATPase phospholipid transporting 11A) | no change | no change | 0.2 | -0.01 | inactive |
| SPATA9 (spermatogenesis associated 9) | no change | no change | -0.36 | -1.08 | inactive |
| HIVEP2 (HIVEP zinc finger 2) | no change | no change | -0.38 | 1.68 | inactive |
| TMEM242 (transmembrane protein 242) | no change | no change | 0.21 | 1.75 | inactive |
| IGFBP5 (insulin like growth factor binding protein 5) | no change | no change | 0.32 | -0.72 | inactive |
| HACD1 (3-hydroxyacyl-CoA dehydratase 1) | no change | no change | 0.55 | 0.55 | inactive |
| TEKT3 (tektin 3) | no change | no change | 0.44 | -0.75 | inactive |
| CXCL13 (C-X-C motif chemokine ligand 13) | no change | no change | 1.1 | -0.79 | inactive |
| GPR26 (G protein-coupled receptor 26) | no change | no change | -1.7 | 2 | inactive |
| TPD52 (tumor protein D52) | no change | no change | -0.19 | 0.28 | inactive |
| NRG2 (neuregulin 2) | no change | no change | -0.09 | 2.95 | inactive |
| PLPP1 (phospholipid phosphatase 1) | no change | no change | -2.08 | 1.11 | inactive |
| TRIM31 (tripartite motif containing 31) | no change | no change | -4.29 | 7.19 | inactive |
| TNF (tumor necrosis factor) | no change | no change | 1.59 | -0.76 | inactive |
| ATP13A1 (ATPase 13A1) | no change | no change | 1.13 | 0.56 | inactive |
| SORT1 (sortilin 1) | no change | no change | -1.27 | 1.17 | inactive |
| TMEM151A (transmembrane protein 151A) | no change | no change | -0.48 | -1.22 | inactive |
| CD80 (CD80 molecule) | no change | no change | -0.52 | 0.04 | inactive |
| PDIA6 (protein disulfide isomerase family A member 6) | no change | no change | -0.24 | -0.34 | inactive |
| AADACL2 (arylacetamide deacetylase like 2) | no change | no change | -0.09 | -1.12 | inactive |
| ARL6IP5 (ARF like GTPase 6 interacting protein 5) | no change | no change | 0.04 | -0.9 | inactive |
| MAL (mal, T cell differentiation protein (MAL blood group)) | no change | no change | -0.41 | -0.18 | inactive |
| KLK11 (kallikrein related peptidase 11) | no change | no change | -0.46 | 0.1 | inactive |
| CTBP1 (C-terminal binding protein 1) | no change | no change | -2.66 | 2.08 | inactive |
| PFN3 (profilin 3) | no change | no change | -0.32 | 0.67 | inactive |
| GRINA | no change | no change | -0.28 | 2.25 | inactive |
| ANKRD6 (ankyrin repeat domain 6) | no change | no change | 0.28 | -0.46 | inactive |
| ELF5 (E74 like ETS transcription factor 5) | no change | no change | 0.04 | -0.97 | inactive |
